Test results reported in article PMC9747586.

Chains of the proteins cited; added tags and fusions are not shown.
UniProt Q93009: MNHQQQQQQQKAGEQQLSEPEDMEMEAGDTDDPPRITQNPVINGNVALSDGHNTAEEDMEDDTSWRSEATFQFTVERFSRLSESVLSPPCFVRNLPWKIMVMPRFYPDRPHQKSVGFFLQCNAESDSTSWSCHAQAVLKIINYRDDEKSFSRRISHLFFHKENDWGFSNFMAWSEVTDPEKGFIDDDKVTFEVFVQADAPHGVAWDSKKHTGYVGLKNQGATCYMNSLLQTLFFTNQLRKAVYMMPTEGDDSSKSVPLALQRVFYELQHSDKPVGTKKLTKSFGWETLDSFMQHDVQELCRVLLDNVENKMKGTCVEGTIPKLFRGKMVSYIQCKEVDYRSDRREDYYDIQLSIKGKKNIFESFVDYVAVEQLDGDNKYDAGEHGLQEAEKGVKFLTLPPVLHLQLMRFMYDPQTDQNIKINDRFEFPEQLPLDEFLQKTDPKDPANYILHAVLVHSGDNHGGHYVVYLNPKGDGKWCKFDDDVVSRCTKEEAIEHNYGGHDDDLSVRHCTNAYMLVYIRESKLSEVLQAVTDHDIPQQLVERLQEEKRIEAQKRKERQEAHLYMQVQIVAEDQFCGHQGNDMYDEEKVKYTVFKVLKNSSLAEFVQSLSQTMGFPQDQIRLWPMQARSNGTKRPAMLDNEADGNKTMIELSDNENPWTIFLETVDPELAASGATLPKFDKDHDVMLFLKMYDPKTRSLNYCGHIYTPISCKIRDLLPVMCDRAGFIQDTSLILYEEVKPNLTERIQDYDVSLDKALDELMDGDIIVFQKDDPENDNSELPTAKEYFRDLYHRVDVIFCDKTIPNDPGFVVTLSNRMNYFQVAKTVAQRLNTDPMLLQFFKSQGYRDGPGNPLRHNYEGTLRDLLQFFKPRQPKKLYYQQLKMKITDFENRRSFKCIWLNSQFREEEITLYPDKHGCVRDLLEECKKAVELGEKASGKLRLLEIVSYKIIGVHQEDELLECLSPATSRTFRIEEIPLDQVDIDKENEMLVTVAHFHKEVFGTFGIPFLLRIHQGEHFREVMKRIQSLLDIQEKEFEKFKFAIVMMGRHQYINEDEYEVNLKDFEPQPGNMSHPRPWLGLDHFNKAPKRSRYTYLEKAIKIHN
UniProt Q14258: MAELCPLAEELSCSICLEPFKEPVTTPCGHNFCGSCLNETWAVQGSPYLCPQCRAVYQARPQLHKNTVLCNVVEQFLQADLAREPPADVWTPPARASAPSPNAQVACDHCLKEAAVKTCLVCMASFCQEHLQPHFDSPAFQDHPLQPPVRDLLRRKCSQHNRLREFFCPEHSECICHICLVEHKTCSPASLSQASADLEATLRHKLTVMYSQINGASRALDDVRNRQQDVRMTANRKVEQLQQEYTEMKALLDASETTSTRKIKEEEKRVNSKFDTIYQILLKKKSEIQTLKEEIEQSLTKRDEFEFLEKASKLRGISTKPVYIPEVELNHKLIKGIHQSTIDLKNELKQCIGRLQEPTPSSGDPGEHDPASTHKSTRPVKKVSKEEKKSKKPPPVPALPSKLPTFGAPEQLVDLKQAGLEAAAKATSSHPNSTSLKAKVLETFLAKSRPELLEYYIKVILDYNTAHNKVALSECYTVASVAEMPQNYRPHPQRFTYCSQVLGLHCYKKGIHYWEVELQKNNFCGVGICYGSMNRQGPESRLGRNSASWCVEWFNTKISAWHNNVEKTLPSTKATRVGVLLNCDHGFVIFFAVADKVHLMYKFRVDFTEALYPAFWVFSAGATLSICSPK

T1: IFNLR1-BioID2 (BioID2 biotin ligase conjugated to the carboxyl-terminus of IFNLR1) (UniProt Q8IU57)
T1 sequence: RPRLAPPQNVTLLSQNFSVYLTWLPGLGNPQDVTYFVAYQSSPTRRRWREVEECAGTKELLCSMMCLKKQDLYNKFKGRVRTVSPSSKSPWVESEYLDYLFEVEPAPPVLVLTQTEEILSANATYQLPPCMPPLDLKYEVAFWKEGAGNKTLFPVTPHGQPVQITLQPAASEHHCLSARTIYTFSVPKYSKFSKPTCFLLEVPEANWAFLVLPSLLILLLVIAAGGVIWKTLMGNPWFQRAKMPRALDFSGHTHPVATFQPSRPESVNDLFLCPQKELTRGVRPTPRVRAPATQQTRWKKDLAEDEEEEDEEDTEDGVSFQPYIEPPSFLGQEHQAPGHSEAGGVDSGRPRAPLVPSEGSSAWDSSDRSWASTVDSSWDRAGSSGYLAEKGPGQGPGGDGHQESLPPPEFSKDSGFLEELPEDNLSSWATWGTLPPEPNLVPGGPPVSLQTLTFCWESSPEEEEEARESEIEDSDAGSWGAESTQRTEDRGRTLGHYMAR

T2: IFNLR1-miniTurbo (biotin ligase miniTurbo conjugated to the carboxyl-terminus of IFNLR1) (UniProt Q8IU57)
T2 sequence: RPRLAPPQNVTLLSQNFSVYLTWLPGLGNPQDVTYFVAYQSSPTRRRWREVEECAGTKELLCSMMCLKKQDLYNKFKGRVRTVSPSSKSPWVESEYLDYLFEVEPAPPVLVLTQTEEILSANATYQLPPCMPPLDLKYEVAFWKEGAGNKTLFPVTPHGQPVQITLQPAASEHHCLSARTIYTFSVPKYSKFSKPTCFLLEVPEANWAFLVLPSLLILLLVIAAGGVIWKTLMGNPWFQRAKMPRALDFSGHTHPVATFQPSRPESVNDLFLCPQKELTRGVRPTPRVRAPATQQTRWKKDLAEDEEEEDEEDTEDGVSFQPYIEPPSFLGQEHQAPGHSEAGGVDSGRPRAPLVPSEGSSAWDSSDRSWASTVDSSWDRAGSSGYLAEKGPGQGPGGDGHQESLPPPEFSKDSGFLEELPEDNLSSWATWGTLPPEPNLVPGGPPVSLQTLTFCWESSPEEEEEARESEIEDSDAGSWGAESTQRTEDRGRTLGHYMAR


What was measured:
[1] = target: T1, IFNLR1-BioID2 (BioID2 biotin ligase conjugated to the carboxyl-terminus of IFNLR1); experiment: proximity labelling; BioID2 fused to the C-terminus of IFNLR1, HEK-293T transiently transfected 48 h, biotin treatment (overnight in the text, 1 h in the legend and methods), streptavidin magnetic beads, mass spectrometry; controls BioID2 alone, IFNGR1-BioID2, SIRPA-BioID2
[2] = target: T2, IFNLR1-miniTurbo (biotin ligase miniTurbo conjugated to the carboxyl-terminus of IFNLR1); experiment: proximity labelling; miniTurbo fused to the C-terminus of IFNLR1, transiently transfected cells, biotin 1 h before harvest, streptavidin magnetic beads, mass spectrometry; compared to miniTurbo alone

binding [1] | binding [2] | Molecule
binds |  | USP7 (from UniProt Q93009 1-1102)
binds |  | TRIM25 (from UniProt Q14258 1-630)
binds | binds | FBXO45 (endogenous, found in the proximity labelling screens) (protein, UniProt P0C2W1 1-286) MAAPAPGAGAASGGAGCSGGGAGAGAGSGSGAAGAGGRLPSRVLELVFSYLELSELRSCALVCKHWYRCLHGDENSEVWRSLCARSLAEEALRTDILCNLPSYKAKIRAFQHAFSTNDCSRNVYIKKNGFTLHRNPIAQSTDGARTKIGFSEGRHAWEVWWEGPLGTVAVIGIATKRAPMQCQGYVALLGSDDQSWGWNLVDNNLLHNGEVNGSFPQCNNAPKYQIGERIRVILDMEDKTLAFERGYEFLGVAFRGLPKVCLYPAVSAVYGNTEVTLVYLGKPLDG

Results are given in words; binding and its absence hold for the method and conditions named. Binding seen in cells or lysates may run through a third protein. A yes stands for co-enrichment or nearness to the bait. Other partners may have been found.
